{"source": "patent US10711043B2", "about": "“Compositions and vaccines comprising vesicles and methods of using the same” (priority 2013, dated 2020)", "tested_on": "HepG2 cells", "assay": "WST-1 cell proliferation assay on HepG2 cells", "format": "cell-based, human", "details": "treated 72 h"}
{"smiles": "COc1cccc2c1C(=O)c1c(O)c3c(c(O)c1C2=O)C[C@@](O)(C(=O)CO)C[C@@H]3O[C@H]1C[C@H](N)[C@H](O)[C@H](C)O1", "note": "[doxorubicin]", "values": [{"measurement": "IC50", "value": 0.16, "unit": "µg/mL"}]}
